Results are given in words; binding and its absence hold for the method and conditions named. Binding seen in cells or lysates may run through a third protein. Some binding calls cover weakened binding; strength is not graded here. Where a sequence is shown, tags or fusion partners need not be part of it.
Target: T1, HMGXB4-HA (co-IP with SUMO1 and PIAS1) (not stated (human or zebrafish cDNA cloned)) (UniProt Q9UGU5)
T1 sequence: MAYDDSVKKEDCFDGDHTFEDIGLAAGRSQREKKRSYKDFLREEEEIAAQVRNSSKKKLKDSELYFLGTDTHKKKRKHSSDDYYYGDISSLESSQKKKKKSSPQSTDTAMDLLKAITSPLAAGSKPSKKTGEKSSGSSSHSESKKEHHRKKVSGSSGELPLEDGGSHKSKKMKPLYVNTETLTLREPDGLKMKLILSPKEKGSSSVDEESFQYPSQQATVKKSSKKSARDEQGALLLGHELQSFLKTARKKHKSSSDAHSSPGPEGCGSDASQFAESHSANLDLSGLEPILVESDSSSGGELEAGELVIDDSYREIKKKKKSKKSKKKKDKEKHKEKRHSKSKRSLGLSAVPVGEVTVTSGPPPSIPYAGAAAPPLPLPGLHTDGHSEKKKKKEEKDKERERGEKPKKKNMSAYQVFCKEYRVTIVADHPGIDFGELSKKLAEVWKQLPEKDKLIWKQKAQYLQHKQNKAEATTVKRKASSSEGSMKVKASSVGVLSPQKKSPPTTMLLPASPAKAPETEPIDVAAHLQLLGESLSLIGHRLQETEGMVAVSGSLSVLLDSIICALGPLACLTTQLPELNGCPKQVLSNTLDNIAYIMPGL
Assay: co-IP; lysate of co-transfected HeLa or HEK293 cells, precipitated with rat monoclonal anti-HA; extraction buffer Tris-HCl 50 mM pH 7.4, NaCl 150 mM, EDTA 1 mM, NP-40 1%, Na-deoxycholate 0.25%; 2 h at 4 °C; immunoblot

Sequences of proteins named here, by UniProt entry; tags and fusion partners are left off. Residues count along the entry.
UniProt P63165, residues 1-97: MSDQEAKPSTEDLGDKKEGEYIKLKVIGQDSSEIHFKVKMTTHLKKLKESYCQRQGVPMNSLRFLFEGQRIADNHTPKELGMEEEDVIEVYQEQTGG
UniProt O75925: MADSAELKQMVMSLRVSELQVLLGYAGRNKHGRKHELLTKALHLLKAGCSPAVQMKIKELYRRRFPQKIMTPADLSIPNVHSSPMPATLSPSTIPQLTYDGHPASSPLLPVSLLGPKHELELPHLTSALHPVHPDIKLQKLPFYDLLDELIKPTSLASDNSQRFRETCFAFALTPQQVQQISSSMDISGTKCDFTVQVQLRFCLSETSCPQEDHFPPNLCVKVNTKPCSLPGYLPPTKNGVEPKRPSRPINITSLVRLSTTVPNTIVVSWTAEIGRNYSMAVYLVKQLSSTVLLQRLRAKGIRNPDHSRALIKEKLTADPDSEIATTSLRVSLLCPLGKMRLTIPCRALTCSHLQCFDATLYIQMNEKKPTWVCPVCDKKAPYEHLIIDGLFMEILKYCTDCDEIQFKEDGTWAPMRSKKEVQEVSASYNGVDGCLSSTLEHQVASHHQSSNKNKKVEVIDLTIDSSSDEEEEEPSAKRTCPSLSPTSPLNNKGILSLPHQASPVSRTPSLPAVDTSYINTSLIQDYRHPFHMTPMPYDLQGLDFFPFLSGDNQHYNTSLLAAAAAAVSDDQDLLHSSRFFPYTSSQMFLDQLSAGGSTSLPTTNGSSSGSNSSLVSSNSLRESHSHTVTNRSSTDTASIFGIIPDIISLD

| Substance | binding |
| --- | --- |
| HIS-SUMO1 (from UniProt P63165 1-97) | binds |
| PIAS1 (co-IP) (from UniProt O75925 1-651) | binds |

Source: PMC10138897
